# Test results taken from the supplement of paper PMC8728848.
# Some of the results follow.
# B1: DC-Sign-R (Homo sapiens), Q9H2X3 (protein)
# chain: MSDSKEPRVQQLGLLEEDPTTSGIRLFPRDFQFQQIHGHKSSTGCLGHGALVLQLLSFMLLAGVLVAILVQVSKVPSSLSQEQSEQDAIYQNLTQLKAAVGELSEKSKLQEIYQELTQLKAAVGELPEKSKLQEIYQELTRLKAAVGELPEKSKLQEIYQELTRLKAAVGELPEKSKLQEIYQELTRLKAAVGELPEKSKLQEIYQELTELKAAVGELPEKSKLQEIYQELTQLKAAVGELPDQSKQQQIYQELTDLKTAFERLCRHCPKDWTFFQGNCYFMSNSQRNWHDSVTACQEVRAQLVVIKTAEEQNFLQLQTSRSNRFSWMGLSDLNQEGTWQWVDGSPLSPSFQRYWNSGEPNNSGNEDCAEFSGSGWNDNRCDVDNYWICKKPAACFRDE
# Key:
# Assay in all cases: glycan array binding signal (z-score within array); higher = stronger binding
# Details in all cases: glycan notation: IUPAC condensed, linker removed
# [1] = target: Gal(b1-4)GlcNAc(b1-6)Gal(b1-4)GlcNAc
# Outline: (§1)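 The Consortium for Functional Glycomics database supplied 3228 glycan arrays, of which those lacking an available protein sequence were dropped. The binding signal, a within-array Z-score, was averaged across arrays of the same protein sequence and across linkers. Negative scores can be read as non-binding.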
# [2] = target: Gal(b1-4)GlcNAc(b1-6)GalNAc
# Outline: as §1
# [3] = target: Gal(b1-4)GlcNAc(b1-6)[Gal(b1-3)]GalNAc
# Outline: as §1
# [4] = target: Gal(b1-4)GlcNAc(b1-6)[Gal(b1-4)GlcNAc(b1-3)]GalNAc
# Outline: as §1
# Gal(b1-4)GlcNAc6P = target: Gal(b1-4)GlcNAc6P
# Outline: as §1
# Gal(b1-6)Gal = target: Gal(b1-6)Gal
# Outline: as §1
# Gal3S(b1-3)GalNAc = target: Gal3S(b1-3)GalNAc
# Outline: as §1
# Gal3S(b1-3)GlcNAc = target: Gal3S(b1-3)GlcNAc
# Outline: as §1
# [5] = target: Gal3S(b1-3)[Fuc(a1-4)]GlcNAc
# Outline: as §1
# Gal3S(b1-4)Glc = target: Gal3S(b1-4)Glc
# Outline: as §1
# Gal3S(b1-4)Glc6S = target: Gal3S(b1-4)Glc6S
# Outline: as §1
# Gal3S(b1-4)GlcNAc = target: Gal3S(b1-4)GlcNAc
# Outline: as §1
# [6] = target: Gal3S(b1-4)[Fuc(a1-3)]Glc6S
# Outline: as §1
# [7] = target: Gal3S(b1-4)[Fuc(a1-3)]GlcNAc
# Outline: as §1
# [8] = target: Gal3S(b1-4)[Fuc(a1-3)]GlcNAc6S
# Outline: as §1
# Gal3S4S(b1-4)GlcNAc = target: Gal3S4S(b1-4)GlcNAc
# Outline: as §1
# Gal3S6S(b1-4)GlcNAc = target: Gal3S6S(b1-4)GlcNAc
# Outline: as §1
# Gal3S6S(b1-4)GlcNAc6S = target: Gal3S6S(b1-4)GlcNAc6S
# Outline: as §1
# Gal4S(b1-4)GlcNAc = target: Gal4S(b1-4)GlcNAc
# Outline: as §1
# Gal4S6S(b1-4)GlcNAc = target: Gal4S6S(b1-4)GlcNAc
# Outline: as §1
# Gal6P(b1-4)GlcNAc = target: Gal6P(b1-4)GlcNAc
# Outline: as §1
# Gal6S(b1-3)GlcNAc = target: Gal6S(b1-3)GlcNAc
# Outline: as §1
# Gal6S(b1-3)GlcNAc6S = target: Gal6S(b1-3)GlcNAc6S
# Outline: as §1
# Gal6S(b1-4)Glc = target: Gal6S(b1-4)Glc
# Outline: as §1
# Gal6S(b1-4)Glc6S = target: Gal6S(b1-4)Glc6S
# Outline: as §1
# Gal6S(b1-4)GlcNAc = target: Gal6S(b1-4)GlcNAc
# Outline: as §1
# Gal6S(b1-4)GlcNAc6S = target: Gal6S(b1-4)GlcNAc6S
# Outline: as §1
# GalNAc(a1-3)Gal = target: GalNAc(a1-3)Gal
# Outline: as §1
# GalNAc(a1-3)GalNAc = target: GalNAc(a1-3)GalNAc
# Outline: as §1
# [9] = target: GalNAc(a1-3)GalNAc(b1-3)Gal(a1-4)Gal(b1-4)Glc
# Outline: as §1
# [10] = target: GalNAc(a1-3)GalNAc(b1-3)Gal(a1-4)Gal(b1-4)GlcNAc
# Outline: as §1
# GalNAc(b1-3)Gal = target: GalNAc(b1-3)Gal
# Outline: as §1
# [11] = target: GalNAc(b1-3)Gal(a1-4)Gal(b1-4)GlcNAc
# Outline: as §1
# [12] = target: GalNAc(b1-3)Gal(a1-4)Gal(b1-4)GlcNAc(b1-3)Gal(b1-4)Glc
# Outline: as §1
# [13] = target: GalNAc(b1-3)Gal(a1-6)Gal(b1-4)Glc
# Outline: as §1
# GalNAc(b1-3)GalNAc = target: GalNAc(b1-3)GalNAc
# Outline: as §1
# GalNAc(b1-3)GlcNAc = target: GalNAc(b1-3)GlcNAc
# Outline: as §1
# GalNAc(b1-4)Gal(b1-4)Glc = target: GalNAc(b1-4)Gal(b1-4)Glc
# Outline: as §1
binder,measurement,setting,value
B1,glycan array binding signal (z-score),[1],0.266
same,glycan array binding signal (z-score),[2],-0.504
same,glycan array binding signal (z-score),[3],-0.369
same,glycan array binding signal (z-score),[4],-0.051
same,glycan array binding signal (z-score),Gal(b1-4)GlcNAc6P,-0.738
same,glycan array binding signal (z-score),Gal(b1-6)Gal,-0.753
same,glycan array binding signal (z-score),Gal3S(b1-3)GalNAc,-0.843
same,glycan array binding signal (z-score),Gal3S(b1-3)GlcNAc,-0.493
same,glycan array binding signal (z-score),[5],0.513
same,glycan array binding signal (z-score),Gal3S(b1-4)Glc,-0.46
same,glycan array binding signal (z-score),Gal3S(b1-4)Glc6S,-0.395
same,glycan array binding signal (z-score),Gal3S(b1-4)GlcNAc,0.181
same,glycan array binding signal (z-score),[6],-0.259
same,glycan array binding signal (z-score),[7],0.631
same,glycan array binding signal (z-score),[8],-0.567
same,glycan array binding signal (z-score),Gal3S4S(b1-4)GlcNAc,-0.058
same,glycan array binding signal (z-score),Gal3S6S(b1-4)GlcNAc,-0.003
same,glycan array binding signal (z-score),Gal3S6S(b1-4)GlcNAc6S,0.202
same,glycan array binding signal (z-score),Gal4S(b1-4)GlcNAc,-0.49
same,glycan array binding signal (z-score),Gal4S6S(b1-4)GlcNAc,0.167
same,glycan array binding signal (z-score),Gal6P(b1-4)GlcNAc,-0.856
same,glycan array binding signal (z-score),Gal6S(b1-3)GlcNAc,-0.57
same,glycan array binding signal (z-score),Gal6S(b1-3)GlcNAc6S,0.262
same,glycan array binding signal (z-score),Gal6S(b1-4)Glc,-0.744
same,glycan array binding signal (z-score),Gal6S(b1-4)Glc6S,-0.383
same,glycan array binding signal (z-score),Gal6S(b1-4)GlcNAc,0.34
same,glycan array binding signal (z-score),Gal6S(b1-4)GlcNAc6S,0.089
same,glycan array binding signal (z-score),GalNAc(a1-3)Gal,-0.027
same,glycan array binding signal (z-score),GalNAc(a1-3)GalNAc,-0.163
same,glycan array binding signal (z-score),[9],0.156
same,glycan array binding signal (z-score),[10],0.343
same,glycan array binding signal (z-score),GalNAc(b1-3)Gal,0.88
same,glycan array binding signal (z-score),[11],-0.247
same,glycan array binding signal (z-score),[12],-0.035
same,glycan array binding signal (z-score),[13],2.04
same,glycan array binding signal (z-score),GalNAc(b1-3)GalNAc,-0.437
same,glycan array binding signal (z-score),GalNAc(b1-3)GlcNAc,-0.545
same,glycan array binding signal (z-score),GalNAc(b1-4)Gal(b1-4)Glc,0.004

# In a second layout: entries from further up
binder	measurement	setting	value
B1	glycan array binding signal (z-score)	Gal3S(b1-3)GalNAc	-0.843
same	glycan array binding signal (z-score)	[10]	0.343
